Source: patent publication US20240190939A1
No constants are given. Whether binding was seen depends on the method and setting. Some entries that bind do so weakly or less than the wild type. Tags and fused reporters may be left off the sequences shown.

The chains behind the UniProt entries cited, without tags or fusion partners. Where a name states a change or a piece, a line headed by the entry shows the natural chain unless it says otherwise.
UniProt Q92692: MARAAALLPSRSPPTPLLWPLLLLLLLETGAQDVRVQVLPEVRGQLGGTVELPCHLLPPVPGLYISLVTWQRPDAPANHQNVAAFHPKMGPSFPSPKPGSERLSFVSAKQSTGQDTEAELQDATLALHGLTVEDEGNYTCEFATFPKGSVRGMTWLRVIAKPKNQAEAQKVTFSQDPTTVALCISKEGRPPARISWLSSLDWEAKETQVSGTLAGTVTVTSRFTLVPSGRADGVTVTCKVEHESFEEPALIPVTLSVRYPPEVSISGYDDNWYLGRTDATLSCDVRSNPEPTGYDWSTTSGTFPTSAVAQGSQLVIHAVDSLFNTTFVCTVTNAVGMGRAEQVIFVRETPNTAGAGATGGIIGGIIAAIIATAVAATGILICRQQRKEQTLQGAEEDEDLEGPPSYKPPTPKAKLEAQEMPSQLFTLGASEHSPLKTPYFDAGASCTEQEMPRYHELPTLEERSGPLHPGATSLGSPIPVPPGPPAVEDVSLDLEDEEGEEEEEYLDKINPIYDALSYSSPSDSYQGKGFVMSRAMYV
UniProt Q9NQS3: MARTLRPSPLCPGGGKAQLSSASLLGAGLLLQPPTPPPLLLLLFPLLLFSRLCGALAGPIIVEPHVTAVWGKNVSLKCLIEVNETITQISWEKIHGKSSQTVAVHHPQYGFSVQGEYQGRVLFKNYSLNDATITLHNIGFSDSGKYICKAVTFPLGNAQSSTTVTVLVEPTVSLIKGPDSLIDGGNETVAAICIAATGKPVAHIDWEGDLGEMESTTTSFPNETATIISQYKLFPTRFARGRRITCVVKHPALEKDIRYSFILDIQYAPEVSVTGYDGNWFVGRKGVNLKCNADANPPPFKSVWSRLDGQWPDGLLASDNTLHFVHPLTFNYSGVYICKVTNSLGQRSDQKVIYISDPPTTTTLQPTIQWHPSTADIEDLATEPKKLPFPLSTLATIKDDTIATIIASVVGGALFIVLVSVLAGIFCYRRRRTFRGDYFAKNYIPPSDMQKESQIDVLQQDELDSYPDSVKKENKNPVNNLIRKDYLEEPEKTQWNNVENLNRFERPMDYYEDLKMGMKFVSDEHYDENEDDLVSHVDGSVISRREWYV

Tests used:
[1] = biological target: recombinant CD112 protein (Homo sapiens (Human)) (UniProt Q92692); experiment: dual ELISA, OX40-Fc captured, detected with recombinant CD112
[2] = biological target: recombinant CD113 protein (Homo sapiens (Human)) (UniProt Q9NQS3); experiment: dual ELISA, OX40-Fc captured, detected with recombinant CD113
[3] = biological target: recombinant CD113 protein (Homo sapiens (Human)) (UniProt Q9NQS3); experiment: Dual ELISA: OX40-Fc capture, CD113 detection, 6x His HRP
[4] = biological target: recombinant CD112 protein (Homo sapiens (Human)) (UniProt Q92692); experiment: Dual ELISA: OX40-Fc capture, CD112-His detection, 6x His HRP

Measured: binding

B1: human TIGIT-Fc-OX40L chimeric protein (Fc fusion)
chain: MMTGTIETTGNISAEKGGSIILQCHLSSTTAQVTQVNWEQQDQLLAICNADLGWHISPSFKDRVAPGPGLGLTLQSLTVNDTGEYFCIYHTYPDGTYTGRIFLEVLESSVAEHGARFQIPSKYGPPCPPCPAPEFLGGPSVFLFPPKPKDQLMISRTPEVTCVVVDVSQEDPEVQFNWYVDGVEVHNAKTKPREEQFNSTYRVVSVLTVLHQDWLSGKEYKCKVSSKGLPSSIEKTISNATGQPREPQVYTLPPSQEEMTKNQVSLTCLVKGFYPSDIAVEWESNGQPENNYKTTPPVLDSDGSFFLYSRLTVDKSRWQEGNVFSCSVLHEALHNHYTQKSLSLSLGKIEGRMDQVSHRYPRIQSIKVQFTEYKKEKGFILTSQKEDEIMKVQNNSVIINCDGFYLISLKGYFSQEVNISLHYQKDEEPLFQLKKVRSVNSLMVASLTYKDKVYLNVTTDNTSLDDFHVNGGELILIHQNPGEFCVL
binds: all assays above
